Results reported in PubChem BioAssay AID540276 (National Center for Advancing Translational Sciences (NCATS), 2011).
In all, about 300,000 compounds went through this assay and about 5,400 (1.8%) were called active. The inconclusive results got no clear call from the source; some entries with a clear call stand among them for comparison. Calls come from the whole dose curve; tested in HEK293 cells. Potencies beside an inconclusive call are fits to weak or partial responses and may not hold up. The source holds several records for some structures; these can differ, active in one and inactive in another.
% is set by controls: 0 for no effect and ±100 for the full control effect; potency is the fitted concentration of half-maximal effect.

Assay: qHTS for inhibitors of binding or entry into cells for Marburg Virus
Details: Marburg virus pseudotyped entry inhibition, cell reporter; activity change, negative = inhibition: at 37.8 µM (top of the series) unless noted
For `O=C(Nc1ccc(N2CCOCC2)cc1)c1cccc(S(=O)(=O)N2CCCC2)c1`, the “activity change, negative = inhibition” value was inactive: -0.381%. With `CCn1c2ccccc2c2cc(CN3CCN(Cc4cc(OC)ccc4O)CC3)ccc21` the Potency was inconclusive: 35.5 µM [inhibitor, single point]. In the case of `CCOc1ccc(-n2c(N)c(-c3nc4ccccc4n3C)c3nc4ccccc4nc32)cc1`, the Potency is reported as inconclusive: 0.141 µM [activator, partial curve, poor fit]. With `O=c1[nH][nH]c(-c2ccccc2O)c1C(C[N+](=O)[O-])c1ccc(Br)cc1` (centres undefined) the Potency was inconclusive: 29.1 µM [inhibitor, single point]. With `CN1c2ccccc2C(C)(C)C12CC(c1ccc(S(=O)(=O)N3CCCCC3)cc1)=NO2` (centres undefined) the Potency was active: 0.164 µM. In the case of `COC(=O)CSc1nc2cc3c(cc2cc1C#N)OCO3`, the Potency is reported as inconclusive: 10 µM [inhibitor, partial curve, poor fit]. For `Cc1nn(Cc2ccc(Cl)cc2)c(C)c1NC(=O)c1noc2c1CCCCC2`, the Potency was inconclusive: 18.3 µM [inhibitor, single point]. With `CCOc1ccc(CN2C(=O)c3ccccc3C2C(=O)NCC2CCCO2)cc1` (centres undefined) the “activity change, negative = inhibition” value was inactive: 14.5% [at 46.1 µM]. For `CC(=O)c1nc2ccccc2n1S(=O)(=O)c1ccc(C)cc1`, the “activity change, negative = inhibition” value was inactive: -2.54%. For `Cc1ccc(Cl)cc1N1CCN(C(=O)c2cc3c(=O)[nH]c4ccccc4c3n2C)CC1`, the Potency was active: 5.62 µM. With `O=C(CSc1nncs1)NCc1ccc(F)cc1` the “activity change, negative = inhibition” value was inactive: 0.291% [at 46.1 µM]. With `CC1=C(c2ccc(C(C)C)cc2)S(=O)(=O)NC1=NCc1ccccc1Br` the Potency was inconclusive: 35.5 µM [inhibitor, single point]. With `COc1cccc(C2CC(C(F)(F)F)n3nc(C(=O)Nc4c(C)n(C)n(-c5ccccc5)c4=O)cc3N2)c1` (centres undefined) the Potency was inconclusive: 35.5 µM [inhibitor, single point]. With `Cc1ccccc1NC(=O)Cc1nnc(SCC(=O)c2ccc(Br)cc2)n1C` the “activity change, negative = inhibition” value was inactive: 16.8%. With `CN(Cc1ccccc1)Cc1nc2c(c(=O)n(C)c(=O)n2C)n1CCCc1ccccc1` the Potency was inconclusive: 7.3 µM [inhibitor, partial curve, poor fit]. For `Cc1sc(NC(=O)Cn2[nH]c(=O)c3ccccc3c2=O)nc1-c1ccccc1`, the Potency was inconclusive: 5.01 µM [activator, single point]. With `Cc1ccc(S(=O)(=O)N(C)CC(=O)O/N=C(\N)c2cccnc2)cc1` the “activity change, negative = inhibition” value was inactive: 19.9%. For `O=C(c1ccc(CSc2nc3ccncc3n2Cc2cccc(F)c2)cc1)N1CCCCC1`, the “activity change, negative = inhibition” value was inactive: -1.95% [at 46.1 µM]. For `CC(NC(=O)Nc1ccc(Cl)c(Cl)c1)C(c1ccccc1)N1CCOCC1` (centres undefined), the Potency was inconclusive: 14.6 µM [inhibitor, partial curve, poor fit].
